Reference: patent US20140093916
For part of these data: Results from cells or extracts need not show a direct contact. Where a protein sequence is shown, tags need not be part of it.

Experiments:
[1] = test system: T1, Vibhar transposase (V6) (Vibrio harveyi); test: pull-down; conditions: complex formed in lysate with both adapters, streptavidin beads; fragments lambda DNA, Mn2+, 45 C; protein in a lysate after overexpression; label: biotin (3bio)
T1 sequence: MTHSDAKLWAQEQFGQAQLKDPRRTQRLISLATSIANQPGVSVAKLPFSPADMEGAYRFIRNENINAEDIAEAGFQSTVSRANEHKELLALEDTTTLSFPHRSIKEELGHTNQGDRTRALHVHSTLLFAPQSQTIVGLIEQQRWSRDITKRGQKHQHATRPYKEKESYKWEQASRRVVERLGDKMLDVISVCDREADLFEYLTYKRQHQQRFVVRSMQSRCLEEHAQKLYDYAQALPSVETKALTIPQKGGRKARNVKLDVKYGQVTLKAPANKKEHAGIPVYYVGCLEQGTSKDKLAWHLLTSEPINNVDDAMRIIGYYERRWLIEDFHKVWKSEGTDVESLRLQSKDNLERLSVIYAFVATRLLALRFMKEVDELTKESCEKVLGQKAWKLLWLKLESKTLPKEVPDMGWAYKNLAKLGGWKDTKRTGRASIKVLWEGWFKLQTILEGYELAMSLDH

[2] = test system: T2, Photobacterium profundum SS9 transposase (5B) (Photobacterium profundum); test: activity assay; conditions: bead-bound complex fragments DNA, less GC bias, Mn2+, 45 C, protein in a lysate after overexpression
T2 sequence: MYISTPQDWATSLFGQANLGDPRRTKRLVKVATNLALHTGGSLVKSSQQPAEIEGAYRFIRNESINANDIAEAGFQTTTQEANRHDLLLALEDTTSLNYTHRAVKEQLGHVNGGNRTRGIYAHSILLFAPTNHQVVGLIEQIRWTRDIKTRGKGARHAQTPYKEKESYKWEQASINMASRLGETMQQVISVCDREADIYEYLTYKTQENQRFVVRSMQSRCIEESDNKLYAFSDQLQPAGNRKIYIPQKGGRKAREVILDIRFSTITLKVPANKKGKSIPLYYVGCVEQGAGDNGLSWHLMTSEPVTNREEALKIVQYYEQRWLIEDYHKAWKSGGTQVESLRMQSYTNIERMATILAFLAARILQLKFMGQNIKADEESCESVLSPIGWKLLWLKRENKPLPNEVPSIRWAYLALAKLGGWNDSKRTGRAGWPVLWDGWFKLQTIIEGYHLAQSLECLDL

[3] = test system: T3, Vibhar+Ant transposase (A) (Vibrio harveyi); test: activity assay; conditions: bead-bound complex fragments DNA, Mn2+, 45 C, protein in a lysate after overexpression
T3 sequence: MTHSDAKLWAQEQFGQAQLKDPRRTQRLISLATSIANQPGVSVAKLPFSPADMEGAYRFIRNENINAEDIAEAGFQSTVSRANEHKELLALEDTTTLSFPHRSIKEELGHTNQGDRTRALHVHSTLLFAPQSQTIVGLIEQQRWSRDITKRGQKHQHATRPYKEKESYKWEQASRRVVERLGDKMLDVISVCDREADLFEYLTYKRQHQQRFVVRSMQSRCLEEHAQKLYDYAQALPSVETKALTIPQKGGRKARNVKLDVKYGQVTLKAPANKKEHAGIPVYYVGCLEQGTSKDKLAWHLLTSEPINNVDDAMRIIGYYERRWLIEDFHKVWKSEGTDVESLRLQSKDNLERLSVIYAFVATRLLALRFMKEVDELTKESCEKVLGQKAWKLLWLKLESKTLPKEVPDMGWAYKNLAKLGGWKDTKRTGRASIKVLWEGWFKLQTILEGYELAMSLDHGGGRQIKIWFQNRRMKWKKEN

[4] = test system: T4, Vibhar+Lef transposase (L) (Vibrio harveyi); test: activity assay; conditions: bead-bound complex fragments DNA, Mn2+, 45 C, protein in a lysate after overexpression, protein details: C-terminal extension GGGKKKRKRER (included in ref)
T4 sequence: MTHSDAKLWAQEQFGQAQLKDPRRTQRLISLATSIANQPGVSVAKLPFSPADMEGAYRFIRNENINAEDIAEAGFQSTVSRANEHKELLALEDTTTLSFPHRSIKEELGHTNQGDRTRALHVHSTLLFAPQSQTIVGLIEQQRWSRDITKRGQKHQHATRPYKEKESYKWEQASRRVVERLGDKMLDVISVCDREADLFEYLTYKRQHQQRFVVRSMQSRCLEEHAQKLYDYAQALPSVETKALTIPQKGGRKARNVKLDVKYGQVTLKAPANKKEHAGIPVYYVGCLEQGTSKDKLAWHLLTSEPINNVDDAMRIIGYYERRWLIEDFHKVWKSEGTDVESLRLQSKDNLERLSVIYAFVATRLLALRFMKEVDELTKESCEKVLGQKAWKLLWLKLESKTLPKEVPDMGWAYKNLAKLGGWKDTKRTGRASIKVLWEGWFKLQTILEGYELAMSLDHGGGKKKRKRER

[5] = test system: T5, Vibhar+Sox transposase (S) (Vibrio harveyi); test: activity assay; conditions: bead-bound complex fragments DNA, Mn2+, 45 C, protein in a lysate after overexpression
T5 sequence: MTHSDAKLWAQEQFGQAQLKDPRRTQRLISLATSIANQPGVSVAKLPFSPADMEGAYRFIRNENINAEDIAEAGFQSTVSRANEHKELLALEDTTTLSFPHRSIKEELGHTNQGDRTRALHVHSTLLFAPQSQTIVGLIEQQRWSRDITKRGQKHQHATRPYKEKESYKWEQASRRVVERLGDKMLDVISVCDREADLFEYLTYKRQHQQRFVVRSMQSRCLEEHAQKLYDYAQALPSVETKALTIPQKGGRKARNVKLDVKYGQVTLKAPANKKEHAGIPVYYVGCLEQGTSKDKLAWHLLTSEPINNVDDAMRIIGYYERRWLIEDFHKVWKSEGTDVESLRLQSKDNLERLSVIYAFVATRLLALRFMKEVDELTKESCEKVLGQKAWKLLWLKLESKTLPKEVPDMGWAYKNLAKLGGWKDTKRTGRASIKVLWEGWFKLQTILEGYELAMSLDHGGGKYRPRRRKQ

[6] = test system: T6, Vibhar/P. profundum C-terminal domain chimeric transposase (5L) (Artificial Sequence); test: activity assay; conditions: bead-bound complex fragments DNA, less GC bias, Mn2+, 45 C, protein in a lysate after overexpression
T6 sequence: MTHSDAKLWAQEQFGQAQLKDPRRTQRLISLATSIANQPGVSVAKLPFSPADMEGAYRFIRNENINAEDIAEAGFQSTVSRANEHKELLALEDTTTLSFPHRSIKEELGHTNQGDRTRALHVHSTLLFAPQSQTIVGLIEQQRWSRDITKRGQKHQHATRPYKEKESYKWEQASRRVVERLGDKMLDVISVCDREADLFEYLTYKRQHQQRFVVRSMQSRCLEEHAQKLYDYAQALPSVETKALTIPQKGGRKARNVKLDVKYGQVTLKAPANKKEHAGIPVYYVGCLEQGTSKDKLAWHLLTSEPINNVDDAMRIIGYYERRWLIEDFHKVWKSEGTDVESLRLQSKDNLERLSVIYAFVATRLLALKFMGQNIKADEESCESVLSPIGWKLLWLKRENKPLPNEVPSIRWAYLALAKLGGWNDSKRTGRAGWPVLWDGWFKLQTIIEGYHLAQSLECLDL

[7] = test system: T7, chimeric transposase SEQ 12 (Artificial Sequence); test: activity assay; conditions: bead-bound complex fragments DNA, Mn2+, 45 C, protein in a lysate after overexpression
T7 sequence: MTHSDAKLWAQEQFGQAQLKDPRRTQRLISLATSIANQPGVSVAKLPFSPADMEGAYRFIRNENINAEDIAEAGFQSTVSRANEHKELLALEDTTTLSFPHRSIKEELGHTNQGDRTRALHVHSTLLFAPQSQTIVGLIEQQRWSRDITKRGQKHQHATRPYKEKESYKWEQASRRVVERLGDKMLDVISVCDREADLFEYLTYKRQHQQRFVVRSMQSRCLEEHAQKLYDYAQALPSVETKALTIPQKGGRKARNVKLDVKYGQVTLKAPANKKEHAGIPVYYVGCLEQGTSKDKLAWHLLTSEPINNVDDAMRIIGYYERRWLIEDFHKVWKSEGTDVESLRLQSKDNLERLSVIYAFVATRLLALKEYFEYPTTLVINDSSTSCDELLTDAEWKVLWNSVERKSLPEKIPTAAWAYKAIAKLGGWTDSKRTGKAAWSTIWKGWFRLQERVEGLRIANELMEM

[8] = test system: T8, chimeric transposase SEQ 13 (Artificial Sequence); test: activity assay; conditions: bead-bound complex fragments DNA, Mn2+, 45 C, protein in a lysate after overexpression
T8 sequence: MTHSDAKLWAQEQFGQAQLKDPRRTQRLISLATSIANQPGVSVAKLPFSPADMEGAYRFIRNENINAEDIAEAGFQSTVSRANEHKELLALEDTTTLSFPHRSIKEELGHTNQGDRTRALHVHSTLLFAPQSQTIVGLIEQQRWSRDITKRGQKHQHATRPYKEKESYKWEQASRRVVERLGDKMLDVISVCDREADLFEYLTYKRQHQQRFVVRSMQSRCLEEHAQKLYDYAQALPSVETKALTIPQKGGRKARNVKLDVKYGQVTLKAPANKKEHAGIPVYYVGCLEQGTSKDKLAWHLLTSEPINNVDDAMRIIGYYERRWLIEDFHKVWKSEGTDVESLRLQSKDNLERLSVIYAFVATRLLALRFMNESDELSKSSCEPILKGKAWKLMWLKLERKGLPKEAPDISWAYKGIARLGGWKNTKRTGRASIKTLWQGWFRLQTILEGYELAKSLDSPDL

[9] = test system: T9, chimeric transposase SEQ 14 (Artificial Sequence); test: activity assay; conditions: bead-bound complex fragments DNA, Mn2+, 45 C, protein in a lysate after overexpression
T9 sequence: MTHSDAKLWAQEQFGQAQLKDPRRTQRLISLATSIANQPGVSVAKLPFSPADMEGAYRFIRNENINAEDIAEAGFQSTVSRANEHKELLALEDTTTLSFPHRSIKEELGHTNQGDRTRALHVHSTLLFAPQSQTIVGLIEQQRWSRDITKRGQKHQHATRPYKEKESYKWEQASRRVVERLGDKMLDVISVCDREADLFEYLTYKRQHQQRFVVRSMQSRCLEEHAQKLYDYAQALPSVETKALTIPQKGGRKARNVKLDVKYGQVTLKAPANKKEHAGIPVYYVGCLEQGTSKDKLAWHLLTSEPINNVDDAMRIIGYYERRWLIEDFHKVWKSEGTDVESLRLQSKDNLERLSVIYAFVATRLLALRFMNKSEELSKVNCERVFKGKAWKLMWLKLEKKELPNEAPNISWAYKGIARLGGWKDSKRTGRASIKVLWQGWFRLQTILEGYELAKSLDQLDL

[10] = test system: T1, Vibhar transposase (V6) (Vibrio harveyi); test: activity assay; conditions: bead-bound complex tagmentation with PCR readout; Mn2+, 45 C; protein in a lysate after overexpression

Sequence | binding result [1] | activity on this sequence ([2]; label: biotin (3bio)) | activity on this sequence ([3]; label: biotin (3bio)) | activity on this sequence ([4]; label: biotin (3bio)) | activity on this sequence ([5]; label: biotin (3bio)) | activity on this sequence ([6]; label: biotin (3bio)) | activity on this sequence ([7]; label: biotin (3bio)) | activity on this sequence ([8]; label: biotin (3bio)) | activity on this sequence ([9]; label: biotin (3bio)) | activity on this sequence [2] | activity on this sequence [10] | activity on this sequence [3] | activity on this sequence [4] | activity on this sequence [5] | activity on this sequence [6] | activity on this sequence [7] | activity on this sequence [8] | activity on this sequence [9]
TTTTTTTTTTTTGCTGACGTCGAGACTTGTGATCAAGAGACAG / CTGTCTCTTGATCACAAGT [adapter 3bio/3i0] | binds | active | active | active | active | active | active | active | active | – | – | – | – | – | – | – | – | –
GGAGCTGTGCGTAGATGTGATCAAGAGACAG / CTGTCTCTTGATCACATCT [adapter 8i1/8i0] | – | – | – | – | – | – | – | – | – | active | active | active | active | active | active | active | active | active
